The results in this text go back to patent US20220074941A1, “HSP90 COMBINATION THERAPY” (Sloan-Kettering Institute for Cancer Research, priority 2011, published 2022).

The data set deals with Hsp90 complexes in K562 cell extract. Briefly: Nano-LC-MS/MS of PU-beads pull-downs. Format: binding. The settings on record: for Matched Peptides by Fraction JA03: Run1, gel size cut 110-150; for Matched Peptides by Fraction JA10: Run2, gel size cut 110-150; for MAXIMUM matched peptides: maximum over fractions JA01-JA14; for Total fmol: protein isolated in PU-beads pull-downs, Waters Xevo QTof MS. As to the method: Protein cargo isolated from cell lysate with PU-beads or control-beads was subjected to proteomic analysis by nano liquid chromatography coupled to tandem mass spectrometry (nano LC-MS/MS). Initial protein identification was performed using the Mascot search engine, and was further evaluated using Scaffold Proteome Software (Tables 5a-d).
Lysates prepared as mentioned above were first pre-cleaned by incubation with control beads overnight at 4° C. […] Beads were washed with lysis buffer, proteins eluted by boiling in 2% SDS, separated on a denaturing gel and Coomassie stained according to manufacturer's procedure (Biorad). […] Analyses of the batch purified pools were done using a QSTAR-Elite hybrid quadrupole time-of-flight mass spectrometer (QTof MS) (AB/MDS Sciex), equipped with a nano spray ion source. Peptide mixtures (in 20 μL) are loaded onto a trapping guard column (0.3×5-mm PepMap C18 100 cartridge from LC Packings) using an Eksigent nano MDLC system (Eksigent Technologies, Inc) at a flow rate of 20 μL/min. […] Electrospray ionization (ESI) needle voltage was set at about 1800 V. The mass analyzer is operated in automatic, data-dependent MS/MS acquisition mode, with the threshold set to 10 counts per second of doubly or triply charged precursor ions selected for fragmentation scans. Survey scans of 0.25 sec are recorded from 400 to 1800 amu; up to 3 MS/MS scans are then collected sequentially for the selected precursor ions, recording from 100 to 1800 amu. The collision energy is automatically adjusted in accordance with the m/z value of the precursor ions selected for MS/MS. Selected precursor ions are excluded from repeated selection for 60 sec after the end of the corresponding fragmentation duty cycle. […] One missed tryptic cleavage site was allowed, precursor ion mass tolerance=0.4 Da fragment ion mass tolerance=0.4 Da, protein modifications were allowed for Met-oxide, Cys-acrylamide and N-terminal acetylation. MudPit scoring was typically applied with ‘require bold red’ activated, and using significance threshold score p<0.05. Unique peptide counts (or ‘spectral counts’) and percent sequence coverages for all identified proteins were exported to Scaffold Proteome Software (version 2_06_01, www.proteomesoftware.com) for further bioinformatic analysis (Table 5a). Using output from Mascot, Scaffold validates, organizes, and interprets mass spectrometry data, allowing more easily to manage large amounts of data, to compare samples, and to search for protein modifications.

B1: N-terminal kinase-like protein; SCYL1, telomerase i (protein, UniProt Q96KG9 1-808, looked up)
N-terminal kinase-like protein: MWFFARDPVRDFPFELIPEPPEGGLPGPWALHRGRKKATGSPVSIFVYDVKPGAEEQTQVAKAAFKRFKTLRHPNILAYIDGLETEKCLHVVTEAVTPLGIYLKARVEAGGLKELEISWGLHQIVKALSFLVNDCSLIHNNVCMAAVFVDRAGEWKLGGLDYMYSAQGNGGGPPRKGIPELEQYDPPELADSSGRVVREKWSADMWRLGCLIWEVFNGPLPRAAALRNPGKIPKTLVPHYCELVGANPKVRPNPARFLQNCRAPGGFMSNRFVETNLFLEEIQIKEPAEKQKFFQELSKSLDAFPEDFCRHKVLPQLLTAFEFGNAGAVVLTPLFKVGKFLSAEEYQQKIIPVVVKMFSSTDRAMRIRLLQQMEQFIQYLDEPTVNTQIFPHVVHGFLDTNPAIREQTVKSMLLLAPKLNEANLNVELMKHFARLQAKDEQGPIRCNTTVCLGKIGSYLSASTRHRVLTSAFSRATRDPFAPSRVAGVLGFAATHNLYSMNDCAQKILPVLCGLTVDPEKSVRDQAFKAIRSFLSKLESVSEDPTQLEEVEKDVHAASSPGMGGAAASWAGWAVTGVSSLTSKLIRSHPTTAPTETNIPQRPTPEGVPAPAPTPVPATPTTSGHWETQEEDKDTAEDSSTADRWDDEDWGSLEQEAESVLAQQDDWSTGGQVSRASQVSNSDHKSSKSPESDWSSWEAEGSWEQGWQEPSSQEPPPDGTRLASEYNWGGPESSDKGDPFATLSARPSTQPRPDSWGEDNWEGLETDSRQVKAELARKKREERRREMEAKRAERKVAKGPMKLGARKLD
In turn, B1 registered a Total fmol of 14.6654 fmol. In addition, for the setting “PU-beads pull-down”, the “Matched Peptides by Fraction JA03” value is 11, the “Matched Peptides by Fraction JA10” value was 21 and the MAXIMUM matched peptides is recorded as 21.

B2: Serine/threonine-protein kinase D2; PRKD2 (protein, UniProt Q9BZL6 1-878, looked up)
Serine/threonine-protein …: MATAPSYPAGLPGSPGPGSPPPPGGLELQSPPPLLPQIPAPGSGVSFHIQIGLTREFVLLPAASELAHVKQLACSIVDQKFPECGFYGLYDKILLFKHDPTSANLLQLVRSSGDIQEGDLVEVVLSASATFEDFQIRPHALTVHSYRAPAFCDHCGEMLFGLVRQGLKCDGCGLNYHKRCAFSIPNNCSGARKRRLSSTSLASGHSVRLGTSESLPCTAEELSRSTTELLPRRPPSSSSSSSASSYTGRPIELDKMLLSKVKVPHTFLIHSYTRPTVCQACKKLLKGLFRQGLQCKDCKFNCHKRCATRVPNDCLGEALINGDVPMEEATDFSEADKSALMDESEDSGVIPGSHSENALHASEEEEGEGGKAQSSLGYIPLMRVVQSVRHTTRKSSTTLREGWVVHYSNKDTLRKRHYWRLDCKCITLFQNNTTNRYYKEIPLSEILTVESAQNFSLVPPGTNPHCFEIVTANATYFVGEMPGGTPGGPSGQGAEAARGWETAIRQALMPVILQDAPSAPGHAPHRQASLSISVSNSQIQENVDIATVYQIFPDEVLGSGQFGVVYGGKHRKTGRDVAVKVIDKLRFPTKQESQLRNEVAILQSLRHPGIVNLECMFETPEKVFVVMEKLHGDMLEMILSSEKGRLPERLTKFLITQILVALRHLHFKNIVHCDLKPENVLLASADPFPQVKLCDFGFARIIGEKSFRRSVVGTPAYLAPEVLLNQGYNRSLDMWSVGVIMYVSLSGTFPFNEDEDINDQIQNAAFMYPASPWSHISAGAIDLINNLLQVKMRKRYSVDKSLSHPWLQEYQTWLDLRELEGKMGERYITHESDDARWEQFAAEHPLPGSGLPTDRDLGGACPPQDHDMQGLAERISVL
Molecule B2 came in with a Total fmol of 3.5358 fmol. For the same molecule, for the setting “PU-beads pull-down”, the “Matched Peptides by Fraction JA03” value is listed as 6, the “Matched Peptides by Fraction JA10” value worked out at 9 and the MAXIMUM matched peptides was 9.

B3: Casein kinase I isoform alpha (protein, UniProt P48729 2-337, looked up)
Casein kinase I isoform alpha: ASSSGSKAEFIVGGKYKLVRKIGSGSFGDIYLAINITNGEEVAVKLESQKARHPQLLYESKLYKILQGGVGIPHIRWYGQEKDYNVLVMDLLGPSLEDLFNFCSRRFTMKTVLMLADQMISRIEYVHTKNFIHRDIKPDNFLMGIGRHCNKLFLIDFGLAKKYRDNRTRQHIPYREDKNLTGTARYASINAHLGIEQSRRDDMESLGYVLMYFNRTSLPWQGLKAATKKQKYEKISEKKMSTPVEVLCKGFPAEFAMYLNYCRGLRFEEAPDYMYLRQLFRILFRTLNHQYDYTFDWTMLKQKAAQQAASSSGQGQQAQTPTGKQTDKTKSNMKGF
B3: the Total fmol is listed as 7.8446 fmol. In addition, the “Matched Peptides by Fraction JA07” value (PU-beads pull-down, Run1, gel size cut <40) turned out to be 5. Also, where the note is “PU-beads pull-down, Run2, gel size cut <40”, the “Matched Peptides by Fraction JA14” value stood at 7. Under “PU-beads pull-down”, this molecule returned an MAXIMUM matched peptides of 7.

B4: Metastasis-associated protein MTA2 (protein, UniProt O94776 1-668, looked up)
Metastasis-associated protein …: MAANMYRVGDYVYFENSSSNPYLVRRIEELNKTANGNVEAKVVCLFRRRDISSSLNSLADSNAREFEEESKQPGVSEQQRHQLKHRELFLSRQFESLPATHIRGKCSVTLLNETDILSQYLEKEDCFFYSLVFDPVQKTLLADQGEIRVGCKYQAEIPDRLVEGESDNRNQQKMEMKVWDPDNPLTDRQIDQFLVVARAVGTFARALDCSSSIRQPSLHMSAAAASRDITLFHAMDTLQRNGYDLAKAMSTLVPQGGPVLCRDEMEEWSASEAMLFEEALEKYGKDFNDIRQDFLPWKSLASIVQFYYMWKTTDRYIQQKRLKAAEADSKLKQVYIPTYTKPNPNQIISVGSKPGMNGAGFQKGLTCESCHTTQSAQWYAWGPPNMQCRLCASCWIYWKKYGGLKTPTQLEGATRGTTEPHSRGHLSRPEAQSLSPYTTSANRAKLLAKNRQTFLLQTTKLTRLARRMCRDLLQPRRAARRPYAPINANAIKAECSIRLPKAAKTPLKIHPLVRLPLATIVKDLVAQAPLKPKTPRGTKTPINRNQLSQNRGLGGIMVKRAYETMAGAGVPFSANGRPLASGIRSSSQPAAKRQKLNPADAPNPVVFVATKDTRALRKALTHLEMRRAARRPNLPLKVKPTLIAVRPPVPLPAPSHPASTNEPIVLED
As for B4, the Total fmol is on record as 17.8585 fmol. Besides, the “Matched Peptides by Fraction JA05” value (PU-beads pull-down, Run1, gel size cut 60-80) was found to be 26. For the same molecule, the “Matched Peptides by Fraction JA12” value (PU-beads pull-down, Run2, gel size cut 60-80) is listed as 24. For the same molecule, the MAXIMUM matched peptides (PU-beads pull-down) worked out at 26.

B5: Signal transducer and activator of transcription 5A (protein, UniProt P42229 1-794, looked up)
Signal transducer and …: MAGWIQAQQLQGDALRQMQVLYGQHFPIEVRHYLAQWIESQPWDAIDLDNPQDRAQATQLLEGLVQELQKKAEHQVGEDGFLLKIKLGHYATQLQKTYDRCPLELVRCIRHILYNEQRLVREANNCSSPAGILVDAMSQKHLQINQTFEELRLVTQDTENELKKLQQTQEYFIIQYQESLRIQAQFAQLAQLSPQERLSRETALQQKQVSLEAWLQREAQTLQQYRVELAEKHQKTLQLLRKQQTIILDDELIQWKRRQQLAGNGGPPEGSLDVLQSWCEKLAEIIWQNRQQIRRAEHLCQQLPIPGPVEEMLAEVNATITDIISALVTSTFIIEKQPPQVLKTQTKFAATVRLLVGGKLNVHMNPPQVKATIISEQQAKSLLKNENTRNECSGEILNNCCVMEYHQATGTLSAHFRNMSLKRIKRADRRGAESVTEEKFTVLFESQFSVGSNELVFQVKTLSLPVVVIVHGSQDHNATATVLWDNAFAEPGRVPFAVPDKVLWPQLCEALNMKFKAEVQSNRGLTKENLVFLAQKLFNNSSSHLEDYSGLSVSWSQFNRENLPGWNYTFWQWFDGVMEVLKKHHKPHWNDGAILGFVNKQQAHDLLINKPDGTFLLRFSDSEIGGITIAWKFDSPERNLWNLKPFTTRDFSIRSLADRLGDLSYLIYVFPDRPKDEVFSKYYTPVLAKAVDGYVKPQIKQVVPEFVNASADAGGSSATYMDQAPSPAVCPQAPYNMYPQNPDHVLDQDGEFDLDETMDVARHVEELLRRPMDSLDSRLSPPAGLFTSARGSLS
Molecule B5 yielded a Total fmol of 33.6765 fmol. The “Matched Peptides by Fraction JA04” value (PU-beads pull-down, Run1, gel size cut 80-110) is 78. In addition, the “Matched Peptides by Fraction JA11” value (PU-beads pull-down, Run2, gel size cut 80-110) was determined as 73. In addition, the MAXIMUM matched peptides (PU-beads pull-down) was 78.
